This is an account of results in article PMC7893075.

Sequences of proteins named here, by UniProt entry; tags and fusion partners are left off.
UniProt Q14203: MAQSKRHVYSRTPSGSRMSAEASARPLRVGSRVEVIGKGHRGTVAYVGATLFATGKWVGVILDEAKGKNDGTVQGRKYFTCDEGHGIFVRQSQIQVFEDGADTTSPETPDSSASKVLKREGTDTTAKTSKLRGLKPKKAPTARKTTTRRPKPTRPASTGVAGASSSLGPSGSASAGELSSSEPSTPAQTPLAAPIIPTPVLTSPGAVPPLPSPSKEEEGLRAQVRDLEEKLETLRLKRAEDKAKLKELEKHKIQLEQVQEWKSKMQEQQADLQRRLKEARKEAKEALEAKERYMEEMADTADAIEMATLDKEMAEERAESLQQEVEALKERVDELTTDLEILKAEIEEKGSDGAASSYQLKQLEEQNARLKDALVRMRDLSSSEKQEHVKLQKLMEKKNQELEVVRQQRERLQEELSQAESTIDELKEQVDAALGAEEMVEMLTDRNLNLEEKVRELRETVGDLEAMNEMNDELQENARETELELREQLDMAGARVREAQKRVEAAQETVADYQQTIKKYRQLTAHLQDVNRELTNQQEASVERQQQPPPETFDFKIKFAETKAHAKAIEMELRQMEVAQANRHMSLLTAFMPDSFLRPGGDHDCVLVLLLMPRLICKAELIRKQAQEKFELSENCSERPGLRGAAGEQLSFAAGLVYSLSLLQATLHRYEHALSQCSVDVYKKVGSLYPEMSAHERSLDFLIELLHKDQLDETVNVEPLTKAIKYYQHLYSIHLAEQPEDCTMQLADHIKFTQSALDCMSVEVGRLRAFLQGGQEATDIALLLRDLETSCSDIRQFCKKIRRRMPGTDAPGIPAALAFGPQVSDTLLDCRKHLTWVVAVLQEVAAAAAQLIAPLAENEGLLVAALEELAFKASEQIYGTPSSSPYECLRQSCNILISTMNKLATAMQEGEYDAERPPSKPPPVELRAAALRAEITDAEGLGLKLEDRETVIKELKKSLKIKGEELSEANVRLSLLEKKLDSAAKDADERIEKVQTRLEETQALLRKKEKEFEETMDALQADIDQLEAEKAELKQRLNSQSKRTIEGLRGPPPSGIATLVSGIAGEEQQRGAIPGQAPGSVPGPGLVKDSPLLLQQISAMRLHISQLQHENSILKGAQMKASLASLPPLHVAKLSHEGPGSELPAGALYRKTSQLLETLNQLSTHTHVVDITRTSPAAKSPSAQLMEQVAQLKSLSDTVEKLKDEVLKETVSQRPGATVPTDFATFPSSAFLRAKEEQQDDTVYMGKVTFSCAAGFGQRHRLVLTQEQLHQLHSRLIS
UniProt Q14204: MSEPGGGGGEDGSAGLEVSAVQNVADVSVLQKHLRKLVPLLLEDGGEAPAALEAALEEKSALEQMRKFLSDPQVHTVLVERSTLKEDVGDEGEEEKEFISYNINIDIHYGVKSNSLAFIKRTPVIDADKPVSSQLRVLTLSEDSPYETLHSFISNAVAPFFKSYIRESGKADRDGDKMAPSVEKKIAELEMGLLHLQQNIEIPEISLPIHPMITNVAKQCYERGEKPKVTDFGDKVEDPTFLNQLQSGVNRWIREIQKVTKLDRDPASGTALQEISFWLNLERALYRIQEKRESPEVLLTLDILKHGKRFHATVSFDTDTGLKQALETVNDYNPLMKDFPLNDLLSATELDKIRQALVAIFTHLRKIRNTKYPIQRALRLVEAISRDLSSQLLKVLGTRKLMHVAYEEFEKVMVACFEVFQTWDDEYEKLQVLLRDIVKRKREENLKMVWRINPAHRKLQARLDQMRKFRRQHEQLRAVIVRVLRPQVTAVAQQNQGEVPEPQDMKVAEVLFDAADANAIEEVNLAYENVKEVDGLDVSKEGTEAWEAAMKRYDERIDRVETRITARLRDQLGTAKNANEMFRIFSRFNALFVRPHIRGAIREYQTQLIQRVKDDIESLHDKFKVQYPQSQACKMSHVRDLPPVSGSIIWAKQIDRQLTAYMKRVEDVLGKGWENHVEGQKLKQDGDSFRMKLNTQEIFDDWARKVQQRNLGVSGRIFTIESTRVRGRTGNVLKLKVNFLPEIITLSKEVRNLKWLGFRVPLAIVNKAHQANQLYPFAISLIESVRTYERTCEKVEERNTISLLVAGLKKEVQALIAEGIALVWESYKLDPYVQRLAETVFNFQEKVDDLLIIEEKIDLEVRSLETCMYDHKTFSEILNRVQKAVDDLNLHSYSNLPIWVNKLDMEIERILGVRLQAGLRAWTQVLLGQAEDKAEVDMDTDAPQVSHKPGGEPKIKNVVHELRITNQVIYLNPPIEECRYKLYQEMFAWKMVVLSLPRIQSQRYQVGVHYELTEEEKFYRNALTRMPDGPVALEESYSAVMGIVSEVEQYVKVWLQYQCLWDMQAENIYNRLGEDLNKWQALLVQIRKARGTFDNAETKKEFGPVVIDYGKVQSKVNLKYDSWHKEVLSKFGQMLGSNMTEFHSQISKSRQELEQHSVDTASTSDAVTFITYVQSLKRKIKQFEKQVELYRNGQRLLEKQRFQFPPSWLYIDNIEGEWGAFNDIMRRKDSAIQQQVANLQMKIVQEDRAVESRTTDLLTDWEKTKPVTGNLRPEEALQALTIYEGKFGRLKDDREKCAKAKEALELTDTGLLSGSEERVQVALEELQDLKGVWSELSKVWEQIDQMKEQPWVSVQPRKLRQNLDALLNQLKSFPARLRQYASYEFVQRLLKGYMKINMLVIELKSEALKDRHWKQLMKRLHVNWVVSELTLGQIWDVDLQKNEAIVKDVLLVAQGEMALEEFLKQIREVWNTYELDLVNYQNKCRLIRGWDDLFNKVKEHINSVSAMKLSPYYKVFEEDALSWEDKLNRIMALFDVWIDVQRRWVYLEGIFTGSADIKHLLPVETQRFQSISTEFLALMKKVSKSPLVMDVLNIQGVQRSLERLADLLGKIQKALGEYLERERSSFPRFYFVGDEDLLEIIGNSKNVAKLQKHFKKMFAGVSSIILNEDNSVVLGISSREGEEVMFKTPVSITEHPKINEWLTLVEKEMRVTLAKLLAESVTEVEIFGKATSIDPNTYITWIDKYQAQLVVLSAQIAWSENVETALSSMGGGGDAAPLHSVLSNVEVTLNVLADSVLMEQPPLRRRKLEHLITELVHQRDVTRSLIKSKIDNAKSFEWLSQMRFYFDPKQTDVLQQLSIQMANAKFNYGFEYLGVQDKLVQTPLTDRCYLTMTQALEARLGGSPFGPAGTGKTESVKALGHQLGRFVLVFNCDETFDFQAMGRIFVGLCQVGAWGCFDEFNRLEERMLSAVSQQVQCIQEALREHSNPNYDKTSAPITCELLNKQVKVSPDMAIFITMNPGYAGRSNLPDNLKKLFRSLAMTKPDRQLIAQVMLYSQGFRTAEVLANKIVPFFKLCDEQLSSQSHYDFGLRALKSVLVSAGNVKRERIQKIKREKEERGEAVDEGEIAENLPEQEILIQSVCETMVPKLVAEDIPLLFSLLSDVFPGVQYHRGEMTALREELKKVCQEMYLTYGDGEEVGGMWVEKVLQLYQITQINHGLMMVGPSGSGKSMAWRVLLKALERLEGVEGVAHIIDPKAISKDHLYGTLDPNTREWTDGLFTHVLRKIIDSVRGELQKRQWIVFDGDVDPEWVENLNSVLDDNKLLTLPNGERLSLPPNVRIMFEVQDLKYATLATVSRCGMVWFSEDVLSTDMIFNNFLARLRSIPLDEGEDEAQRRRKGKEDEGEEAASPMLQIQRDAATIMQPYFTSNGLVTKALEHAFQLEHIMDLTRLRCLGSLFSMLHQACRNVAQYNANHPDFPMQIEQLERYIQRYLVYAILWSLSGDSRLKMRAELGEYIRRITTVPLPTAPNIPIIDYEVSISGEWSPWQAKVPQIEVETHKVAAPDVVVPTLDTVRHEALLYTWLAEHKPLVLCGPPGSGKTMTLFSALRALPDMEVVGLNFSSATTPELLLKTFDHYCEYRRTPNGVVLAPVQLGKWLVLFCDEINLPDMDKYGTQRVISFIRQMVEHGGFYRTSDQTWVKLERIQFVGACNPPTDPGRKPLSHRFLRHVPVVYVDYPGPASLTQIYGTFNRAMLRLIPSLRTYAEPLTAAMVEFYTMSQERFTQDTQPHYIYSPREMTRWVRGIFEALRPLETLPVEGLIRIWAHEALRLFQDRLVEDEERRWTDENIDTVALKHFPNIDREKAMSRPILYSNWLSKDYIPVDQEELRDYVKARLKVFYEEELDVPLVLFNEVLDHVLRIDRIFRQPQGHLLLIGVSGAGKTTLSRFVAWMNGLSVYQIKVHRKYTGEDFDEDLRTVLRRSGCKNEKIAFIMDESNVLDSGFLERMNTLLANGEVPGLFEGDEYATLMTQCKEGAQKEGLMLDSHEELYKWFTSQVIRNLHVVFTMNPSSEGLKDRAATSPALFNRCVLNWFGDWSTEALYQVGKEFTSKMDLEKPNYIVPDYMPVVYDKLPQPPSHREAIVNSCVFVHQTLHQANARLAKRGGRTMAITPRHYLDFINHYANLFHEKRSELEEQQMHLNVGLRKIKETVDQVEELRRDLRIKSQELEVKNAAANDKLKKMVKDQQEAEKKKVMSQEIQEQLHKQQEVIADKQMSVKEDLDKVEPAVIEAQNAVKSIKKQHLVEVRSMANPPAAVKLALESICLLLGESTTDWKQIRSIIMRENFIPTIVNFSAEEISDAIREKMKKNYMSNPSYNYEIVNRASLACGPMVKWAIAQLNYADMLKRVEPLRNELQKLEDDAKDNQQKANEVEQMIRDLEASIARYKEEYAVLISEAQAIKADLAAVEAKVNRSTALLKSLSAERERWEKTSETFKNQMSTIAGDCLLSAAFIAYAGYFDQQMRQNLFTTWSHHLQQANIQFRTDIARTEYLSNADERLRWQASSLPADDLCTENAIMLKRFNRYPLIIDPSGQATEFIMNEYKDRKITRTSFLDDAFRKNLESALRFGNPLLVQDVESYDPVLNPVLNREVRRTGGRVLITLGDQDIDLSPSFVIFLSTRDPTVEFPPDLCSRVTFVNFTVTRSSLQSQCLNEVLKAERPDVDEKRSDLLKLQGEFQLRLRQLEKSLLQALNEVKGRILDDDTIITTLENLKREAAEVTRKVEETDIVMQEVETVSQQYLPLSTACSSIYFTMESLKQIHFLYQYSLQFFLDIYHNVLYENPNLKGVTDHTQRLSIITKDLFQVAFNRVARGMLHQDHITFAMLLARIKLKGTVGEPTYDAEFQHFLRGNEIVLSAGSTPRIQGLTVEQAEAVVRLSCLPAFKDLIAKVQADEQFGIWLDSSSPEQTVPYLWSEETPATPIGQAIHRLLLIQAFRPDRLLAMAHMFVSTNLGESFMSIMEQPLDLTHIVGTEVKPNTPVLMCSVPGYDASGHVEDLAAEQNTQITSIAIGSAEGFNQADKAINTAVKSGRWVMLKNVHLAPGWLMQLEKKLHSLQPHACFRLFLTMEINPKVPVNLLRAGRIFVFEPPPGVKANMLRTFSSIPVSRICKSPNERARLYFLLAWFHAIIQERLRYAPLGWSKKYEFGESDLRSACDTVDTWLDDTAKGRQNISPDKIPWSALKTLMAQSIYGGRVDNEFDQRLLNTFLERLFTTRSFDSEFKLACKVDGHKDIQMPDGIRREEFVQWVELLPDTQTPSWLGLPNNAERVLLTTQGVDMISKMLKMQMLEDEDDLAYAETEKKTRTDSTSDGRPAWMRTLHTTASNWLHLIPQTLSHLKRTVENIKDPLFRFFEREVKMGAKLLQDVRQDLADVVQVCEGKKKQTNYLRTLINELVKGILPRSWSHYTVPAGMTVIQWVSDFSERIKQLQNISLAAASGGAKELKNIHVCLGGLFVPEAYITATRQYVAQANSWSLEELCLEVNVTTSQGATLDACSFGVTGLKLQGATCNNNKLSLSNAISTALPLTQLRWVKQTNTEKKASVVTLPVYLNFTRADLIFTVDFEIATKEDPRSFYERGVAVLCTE

The target of the assay is p150^Glued, subunit of dynactin, endogenous (human (endogenous in HUVEC)) (UniProt Q14203). The assay is described as follows: co-IP; endogenous proteins in HUVECs treated with 30 µM histamine or vehicle, cross-linked with 1% PFA, NP-40 lysate; IP with anti-Rab46, anti-DHC, anti-p150 or anti-ATP1α1 antibody or control IgG on Protein G sepharose; western blot.

Results are given in words; binding and its absence hold for the method and conditions named. In cells and extracts the contact can be indirect. Some entries that bind do so weakly or less than the wild type.

On to “dynein heavy chain (DHC), endogenous (from UniProt Q14204 1-4646)”, for which the binding result is recorded as “binds”.
